# Percent effect of library compounds

Source: ChEMBL document CHEMBL3988442, “University of Dundee, Small-Polar-MMV Screening Library” (2021).

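Whole-parasite assay of Trypanosoma brucei over 72 hours; the read-out is not stated. Compounds at 30 µM. Direction is inferred from retests: higher values go with stronger inhibition. Values scatter widely below zero; nearly all retest evidence comes from the higher of the two concentrations used. Of about 64,000 compounds tested this way, about 940 (1.5%) reached 50% or more in at least one test.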

Each number is a percent effect as filed. How 0% and 100% were set is not recorded. Most values in the screen are low, and negative values occur. Compounds were drawn at random from those tested, without regard to their results.

SMILES	percent effect
O=C(NCCc1noc(C2CCCC2)n1)c1cn2ccsc2n1	19.75%
[H][C@@]12CCN(Cc3ccoc3)[C@]1([H])CC[C@H](C(=O)NCC1CC1)O2	16.97%
CC(C)(C)n1cc(C#N)cc1NC(=O)CCNC(=O)c1ccco1	-8.772%
CCC(NC(=O)CC1CCN(C(C)C)CC1)c1cn2cccnc2n1 (stereo unspecified)	-16.96%
COCCN1CCCC(c2nc3c([nH]2)CC(C)(C)CNC3=O)C1 (stereo unspecified)	5.084%
CC(C)N1CCC(c2nccnc2Nc2ncccn2)CC1	-20.54%
O=C(O)C(F)(F)F.O=C(O)C(F)(F)F.[H][C@@]12OCCN(CC3CCOCC3)[C@@]1([H])CC[C@H]2Oc1ccccn1	-12.47%
CN(C)CC1(O)CCN(C(=O)c2cnc(CN3CCCC3)s2)C1 (stereo unspecified)	-52.36%
COc1cccc(N2CC3(CCN(c4ccc(C)nn4)C3)CC2=O)c1 (stereo unspecified)	-36.67%
CN1CCN(C(=O)c2cc(NC(=O)c3ccccc3)n(C)n2)CC1	-22.63%
NC(=O)NC(=O)CN1CCN(c2nccs2)CC1	11.39%
Cc1ccc(OCC(=O)NCC(F)(F)F)nc1	-40.5%
Cn1c2c(c(=O)n1C)CN(C(=O)c1cccc(F)c1)CCC2	18.96%
CC1N(C)C(=O)COC12CCN(C(=O)CCc1ccccc1)CC2 (stereo unspecified)	-72.08%
[H][C@@]12CN(C(=O)NC(C)C)C[C@@]1([H])N(CC(C)C)C(=O)CO2	-33.26%
COc1ccc2nnc(CCCC(=O)Nc3nc4c(s3)CCC4)n2n1	-21.77%
Cc1ccc(C(=O)O)cc1CNC(=O)CN1CC[C@](C)(O)C(C)(C)C1	0.2807%
COc1cccc(OC2CN(C(=O)c3ccoc3C)C2)c1	-18.82%
Cc1ccc(C(=O)N2CCC(c3n[nH]c(C4CC4)n3)CC2)cc1F	-8.692%
CN1CC(=O)N(c2cnn(C)c2)CC12CCN(Cc1cccs1)C2.O=C(O)C(F)(F)F.O=C(O)C(F)(F)F (stereo unspecified)	-5.896%
CC(NCC1CCN(CCO)CC1)c1ccc(OC(F)(F)F)cc1 (stereo unspecified)	43.94%
OCC1CCN(C[C@@H]2CN(C3Cc4ccccc4C3)C[C@@H]2CO)CC1	-3.173%
Cc1ncccc1C(=O)Nc1ccc2ccn(CCN(C)C)c2c1	-17.17%
Cc1cccc(NC(=O)N2CCC(CO)(Nc3ccccc3)CC2)c1	-16.44%
CC(=O)NCc1noc2c1CN(CCN1CCCC1)CC2.O=C(O)C(F)(F)F.O=C(O)C(F)(F)F	-70.97%
CC1CCc2nn(CCNC(=O)Cc3cccs3)c(=O)cc2C1 (stereo unspecified)	0.3935%
CCC(C)(C)C1CCCN1C(=O)c1coc(S(=O)(=O)NC)c1 (stereo unspecified)	-70.33%
NCC1(c2cccc(C(F)(F)F)c2)CCOCC1	0.06984%
Cc1cc(C(=O)N2CCNC(=O)CC2)c(C)n1CC(F)(F)F	-62.47%
Cc1noc(C)c1CN1CCOC2(CCCN(c3nncs3)C2)C1.O=C(O)C(F)(F)F (stereo unspecified)	22.3%
[H][C@@]12CN(Cc3ccc(C)o3)C[C@]1([H])N(Cc1ccccn1)C(=O)O2	-22.57%
COCc1ccc(CN[C@H]2C[C@@H](Cc3cc(CCO)on3)C2(C)C)o1	-4.338%
CN1CCCC1c1nnc2n1CCN(S(=O)(=O)c1ccccc1Cl)CC2 (stereo unspecified)	7.676%
CS(=O)(=O)CCCC(=O)N1CCN(CC2CC2)c2ccccc21	2.043%
CNC(=O)C1CCCN(C(=O)C2CCC2)C1 (stereo unspecified)	12.15%
Cc1nnc(SCC(=O)N2CCC3(CC2)c2ccccc2CC3O)o1 (stereo unspecified)	0.9368%
Cn1nccc1C(=O)N1CC[C@]2(C[C@H](OCc3ccccn3)CO2)C1.O=C(O)C(F)(F)F	-48.61%
O=C(c1ccc2[nH]ccc2c1)N1CCn2cc(CN3CCCC3)nc2C1	-1157%
Cc1nc(C)n(CC2CN(CCOc3cccc(F)c3)CCO2)n1 (stereo unspecified)	1.669%
CC(CNC(=O)c1cccnc1Oc1cccnc1)N(C)C (stereo unspecified)	12.03%
CCN1CCN(C2CCN(Cc3nc(-c4ccoc4)no3)CC2)C1=O	-15.9%
Cc1ccc(C)c(CN(CC(N)=O)C(C)C)c1	-11.18%
O=C(O)C(F)(F)F.O=C(O)C(F)(F)F.O=C(O)C(F)(F)F.c1cncc(CN2CCC3(COCCN(C4CCOCC4)C3)C2)c1 (stereo unspecified)	35.49%
CCOC(=O)c1cnn(-c2cc(Oc3cccc(C)c3)ncn2)c1N	-24.93%
N#Cc1ccc(CNc2ncc(C#N)cc2Cl)cc1	12.61%
CCOCCCNCc1cc(O)c2cc(C)ccc2n1	-7.757%
CC(C)(C)OC(=O)NCCc1csc(N2CCCC2)n1	63.65%
Cc1ccc(CN(C)Cc2nc3ccc(F)cc3[nH]2)cn1	5.019%
Cc1ccc(Cl)cc1NC(=O)Cn1cc(C(=O)O)ccc1=O	-63.46%
O=C1CCC(c2nc(C3CCNCC3)no2)N1 (stereo unspecified)	5.782%
NCc1ccnc(Oc2ccccc2)c1	-38.53%
CCOCCCNc1nc(CS(=O)(=O)c2ccccc2)cs1	-20.64%
CC(C)c1nncn1CCNC(=O)c1c(O)cc(F)cc1F	-2.132%
CS(=O)(=O)N1CCc2ccc(=O)n(CCN3CCCC3)c2CC1.O=C(O)C(F)(F)F	-54.7%
CS(=O)(=O)CCC(=O)NC1(c2cccc(Br)c2)CC1	12.23%
[H][C@@]12CCN(c3ccccn3)C[C@]1([H])[C@@H](CNC(=O)c1ccco1)OC2	-7.275%
CN(CCC#N)C(=O)CN1CCC(c2cc3ccccc3[nH]2)CC1	-49.22%
CC(C)Nc1nc(O)cc(C2CC(=O)N(Cc3ccccn3)C2)n1.Cl (stereo unspecified)	-7.126%
O=C(O)C(F)(F)F.O=C(c1nc2c(o1)CN(CC1CC1)C2)N1CCCC1	-62.76%
Cc1ccc2nc(C)c(C)c(C(=O)NCCCn3ccnn3)c2c1	-1.658%
c1ccc(-c2noc(CCCN3CCCC3Cn3cncn3)n2)cc1 (stereo unspecified)	7.271%
CS(=O)(=O)CCC(=O)N1CCC(c2cccc(F)c2)C1 (stereo unspecified)	-24.61%
Cc1nc(C(C)C)sc1C(=O)NS(=O)(=O)c1ccc(C#N)cc1	7.874%
Cc1c(C(=O)N2CC(Cc3nccc4ccn(C)c34)C2)cnn1C	11.25%
COc1ccc(C(=O)C2CCCN(c3cc(N)ncn3)C2)c(C)c1 (stereo unspecified)	35.59%
NC(=O)CN(Cc1ncc(-c2ccc(F)cc2)o1)C1CCCC1	-21.03%
CN1CCNCC(Cc2cnc3ccccc3c2)C1 (stereo unspecified)	-11.07%
Cc1nn(C)c2cnn(CC(=O)NCc3cccs3)c12	-5.798%
O=C(COCc1ccccc1Cl)N1CCN(c2ncccn2)CC1	-3.866%
COc1c(CNCc2cnn(C)c2)c(C(C)C)nn1C	10.05%
CCCN(Cc1cnn(C)c1)CC1CCCN(S(C)(=O)=O)C1 (stereo unspecified)	-16.64%
Cc1noc(Cl)c1CCC(=O)N1CCN(Cc2ccncc2)CC1	14.22%
COc1c(CNCc2ccc3c(c2)OCO3)c(C(C)C)nn1C	-8.161%
CCOCC(O)CN1CCN(C(=O)CC(C)(C)C)CC1 (stereo unspecified)	-17.19%
CCn1cc(NC(=O)NC(CO)Cc2c[nH]c3ccccc23)cn1 (stereo unspecified)	-26.23%
O=C(c1cncc(NCC2COc3ccccc3C2)n1)N1CCOCC1 (stereo unspecified)	-32.09%
Cc1cc(C2CCCN2Cc2nc3ccccc3o2)on1 (stereo unspecified)	-14.73%
COC1(CNC(=O)NCCOc2ccccc2)CCSC1 (stereo unspecified)	-1.362%
Cc1cnc(C(=O)N(C)[C@@H]2CCC[C@@H](Oc3ccccc3)[C@@H]2O)cn1	-3.465%

Some entries from above, unchanged:

* Cc1ccc(CN(C)Cc2nc3ccc(F)cc3[nH]2)cn1 : 5.019%
* Cc1cnc(C(=O)N(C)[C@@H]2CCC[C@@H](Oc3ccccc3)[C@@H]2O)cn1 : -3.465%
* Cc1ccc(C(=O)O)cc1CNC(=O)CN1CC[C@](C)(O)C(C)(C)C1 : 0.2807%
* Cc1c(C(=O)N2CC(Cc3nccc4ccn(C)c34)C2)cnn1C : 11.25%